Among all 340,000 compounds or so, about 170 (0.05%) were called active. The shares of active, inactive and inconclusive entries below differ from those in the screen. The call rests on the fitted dose curve; in most records, active means well fitted inhibition curve with a large enough effect in the signal ratio, with a control signal flat (not every such curve was filed as active); inconclusive means small, poorly fitted or top-dose-only effect, or effect the other way, or a change in a side signal; inactive means flat fitted curve, though single readings scatter; the % refers to the signal ratio. Where the call is inconclusive, the potency comes from a doubtful curve fit.
Experiment: qHTS Assay to Find Inhibitors of Chronic Active B-Cell Receptor Signaling;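 on activity change, negative = inhibition: plate controls were basal doxycycline-induced cells for no effect and cells given 10 µM MG132 for full effect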
Details: ABC-DLBCL IkBa-CBG/CBR reporter, luminescence ratio (green luciferase fused to IkBa over red control in TMD8 lymphoma cells), 4 h; activity change, negative = inhibition: at 46.1 µM (top of the series) unless noted
Summary of the method: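 TMD8 ABC-DLBCL cells carrying doxycycline-inducible green luciferase fused to IkappaBalpha plus unfused red luciferase were exposed to compounds (up to 46 uM) for 4 hrs at 37C. Activity came from the overlap-corrected green/red luminescence ratio.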
Potency means the concentration at half of the fitted maximal effect.

Q: For CC(Nc1cc(N2CCN(S(=O)(=O)N(C)C)CC2)ccc1[N+](=O)[O-])c1ccccc1 (configuration not stated), which activity change, negative = inhibition is on record?
A: inconclusive: 0.332%

Q: With C[C@@H]1CN([C@@H](C)CO)C(=O)Cc2cc(NC(=O)Nc3ccc(C(F)(F)F)cc3)ccc2O[C@@H]1CN(C)S(=O)(=O)c1ccc(Cl)cc1 as the compound, how does the activity change, negative = inhibition read?
A: inactive

Q: Which activity change, negative = inhibition does the source give for Nc1ncnc2c1ncn2[C@@H]1O[C@H](CNCc2ccc(OCc3ccccc3)cc2)[C@@H](O)[C@H]1O here?
A: inactive

Q: With CC(=O)Nc1ccc(NC(=O)c2cc([N+](=O)[O-])cc([N+](=O)[O-])c2)cc1 as the compound, how does the activity change, negative = inhibition read?
A: inactive

Q: With COC(=O)c1ccccc1NC1=C/C(=N\S(=O)(=O)c2cccs2)c2ccccc2C1=O as the compound, how does the Potency read?
A: inconclusive: 9.2 µM [falling, partial curve, poor fit]

Q: Which activity change, negative = inhibition does the source give for Cc1ccc(Nc2nc(N)c(C#N)c(CC#N)c2C#N)cc1 here?
A: inactive

Q: With COc1ccccc1/C=C1\SC(=O)N(CCC(=O)NNC(=O)c2ccccc2Cl)C1=O as the compound, how does the Potency read?
A: inconclusive: 16.4 µM [falling, partial curve]

Q: With CCOC(=O)N1CCC(NCCNC(=O)c2ccc(Cl)cc2)CC1 as the compound, how does the activity change, negative = inhibition read?
A: inconclusive: 7.03%

Q: With O=[N+]([O-])c1ccccc1/C=C/C=N/n1c(-c2ccccc2F)n[nH]c1=S as the compound, how does the Potency read?
A: inconclusive: 7.94 µM [falling, partial curve]

Q: With Cc1ccc(CCNC(=O)CN2CCN(Cc3ccccc3F)C2=O)cc1 as the compound, how does the activity change, negative = inhibition read?
A: inconclusive: 22.6%

Q: Which activity change, negative = inhibition does the source give for Cc1ccc(S(=O)(=O)N2CCC3(CC2)OCCO3)s1 here?
A: inactive

Q: For Cn1nnnc1Sc1ncnc2scc(-c3ccc(-c4ccccc4)cc3)c12, which Potency is on record?
A: inconclusive: 10.3 µM [falling, partial curve, poor fit]

Q: Which activity change, negative = inhibition does the source give for COc1ccc(Oc2ccc(NC(=O)c3ccccc3C)cc2)cc1 here?
A: inconclusive: -6.35%

Q: Which activity change, negative = inhibition does the source give for COc1ccc(C2C3=C(CCCC3=O)NC3=C2C(=O)c2ccccc23)cc1 (configuration not stated) here?
A: inconclusive: -1.65%

Q: For O=C(NCc1ccco1)Nc1ccc2nsnc2c1, which Potency is on record?
A: inconclusive: 23.1 µM [falling, single point]

Q: For COc1ccccc1N1CCN(C2CCC(C)CC2)CC1 (configuration not stated), which activity change, negative = inhibition is on record?
A: inconclusive: 10.4%

Q: With O=C(c1ccncc1)N1CCN(C2CCC(c3ccccc3)CC2)CC1 (configuration not stated) as the compound, how does the activity change, negative = inhibition read?
A: inactive

Q: Which activity change, negative = inhibition does the source give for COc1ccc(S(=O)(=O)N2CCCCCC2)cc1C(=O)Nc1ccccn1 here?
A: inconclusive: 9.17%

Q: Which activity change, negative = inhibition does the source give for CC1CCCCN1CCNC(=O)C1CCCN(c2ncnc3c2nc2n3CCCCC2)C1 (configuration not stated) here?
A: inactive

Q: Which activity change, negative = inhibition does the source give for OCC1(Cc2ccc(Cl)cc2)CCN(Cc2ccc3nsnc3c2)CC1 here?
A: inconclusive: -0.831%

Q: For NC(=O)CC(NC(=O)c1ccc(Br)cc1)c1ccc(N2CCN(c3ccccc3)CC2)c([N+](=O)[O-])c1 (configuration not stated), which Potency is on record?
A: inconclusive: 35.5 µM [falling, single point]

Q: With Cc1ccccc1NCC(=O)N/N=C\c1ccc2c(c1)OCO2 as the compound, how does the activity change, negative = inhibition read?
A: inconclusive: -14.7%

Q: With COc1ccc(CC(=O)O/N=C(\N)Cc2cccc3ccccc23)cc1OC as the compound, how does the activity change, negative = inhibition read?
A: inconclusive: 3.88%

Q: With COc1ccc(-c2nc3sc(CCNC(=O)C(=O)Nc4cc(C)cc(C)c4)c(C)n3n2)cc1 as the compound, how does the Potency read?
A: inconclusive: 0.355 µM [falling, partial curve, poor fit]

Q: With S=C(c1ccc(-c2ccc(Cl)c(Cl)c2)o1)N1CCOCC1 as the compound, how does the activity change, negative = inhibition read?
A: inconclusive: 14.9%

Q: With CCCc1cc(-c2n[nH]c(=S)n2Cc2ccccc2)cs1 as the compound, how does the activity change, negative = inhibition read?
A: inconclusive: 10.9%

Q: Which activity change, negative = inhibition does the source give for Cc1ccc(C(=O)NCC(c2cccs2)S(=O)(=O)c2cccs2)cc1C (configuration not stated) here?
A: inconclusive: 6.1%

Q: For Cc1[nH]c2ccccc2c1C(=O)C(=O)NCCC1=CCCCC1, which activity change, negative = inhibition is on record?
A: inconclusive: 18.2%

Q: Which activity change, negative = inhibition does the source give for Cc1c(C(=O)N(Cc2cccc(Br)c2)C2CCS(=O)(=O)C2)oc2ccc(F)cc12 (configuration not stated) here?
A: inactive

Q: Which activity change, negative = inhibition does the source give for Cc1ccc(S(=O)(=O)NC(=O)Nc2ccc(Cl)cn2)cc1 here?
A: inconclusive: 2.54%

Q: Which activity change, negative = inhibition does the source give for C#CCOc1c(Cl)cc(/C=N/O)cc1OC here?
A: inconclusive: 1.69%

Q: Which Potency does the source give for COc1cccc(C(=O)Nc2ccc(C)cc2)c1 here?
A: inconclusive: 20.6 µM [falling, partial curve]

Q: Which activity change, negative = inhibition does the source give for CC1CCN(CCCCOc2ccc(Cl)cc2)CC1 here?
A: inactive

Q: For Clc1ccc2nc(C3CCN(Cc4nnnn4C4CCCCC4)CC3)[nH]c2c1, which activity change, negative = inhibition is on record?
A: inconclusive: -26.9%

Q: Which activity change, negative = inhibition does the source give for Cc1ccc(C)c(NC(=S)Nc2ncccc2C)c1 here?
A: inconclusive: 8.08%

Q: For COc1ccc(S(=O)(=O)n2ccc(C)n2)cc1C, which Potency is on record?
A: inconclusive: 29.1 µM [falling, single point]

Q: Which Potency does the source give for NNC(=O)c1ccncc1 here?
A: inconclusive: 35.5 µM [falling, single point]

Q: Which activity change, negative = inhibition does the source give for O=C(NC(=S)NNC(=O)[C@H]1C[C@@H]1c1ccccc1)c1cccc(F)c1 here?
A: inconclusive: 18.3%

Q: Which activity change, negative = inhibition does the source give for O=C(CS(=O)(=O)c1ccc(F)cc1)Nc1nnc(-c2cccs2)o1 here?
A: inactive

Q: For COc1ccccc1C(c1nnnn1C(C)(C)C)N1CCN(C(=O)c2ccco2)CC1 (configuration not stated), which activity change, negative = inhibition is on record?
A: inactive

Q: With COc1ccc(NC(=O)CC2C(=O)N(c3ccc(OC)cc3)C(=O)N2C(C)C)cc1 (configuration not stated) as the compound, how does the activity change, negative = inhibition read?
A: inconclusive: -5.95%

Q: With CN(Cc1nc(-c2cccnc2)no1)S(=O)(=O)c1ccccc1 as the compound, how does the activity change, negative = inhibition read?
A: inconclusive: 12.6%

Q: Which activity change, negative = inhibition does the source give for O=C(Cc1ccccc1)Nc1ccc2oc(-c3cccnc3)nc2c1 here?
A: inactive

Q: For COc1ccc(OC)c(NC(=O)CSC2=Nc3ccccc3C3=NC(CC(=O)NCc4ccco4)C(=O)N23)c1 (configuration not stated), which activity change, negative = inhibition is on record?
A: inactive

Q: With CCC(Sc1nc2cc(OC)c(OC)cc2c(=O)n1Cc1ccc(Cl)cc1)C(=O)NCCOC (configuration not stated) as the compound, how does the activity change, negative = inhibition read?
A: inactive

Q: With CCOc1nc(C)cc(C)c1S(=O)(=O)c1cccc(Cl)c1 as the compound, how does the activity change, negative = inhibition read?
A: inactive

Q: With CCOC(=O)C(CC)Sc1nc2c(cnn2-c2ccccc2)c(=O)[nH]1 (configuration not stated) as the compound, how does the activity change, negative = inhibition read?
A: inconclusive: 16.9%

Q: For Cc1nn(C)cc1/C=C/C(=O)c1ccccc1, which Potency is on record?
A: inconclusive: 20.6 µM [falling, partial curve]

Q: Which activity change, negative = inhibition does the source give for Cc1ccc(C)c(Cn2c3ccccc3c3cnn(CC(=O)NCCCN4CCOCC4)c(=O)c32)c1 here?
A: inactive

Q: Which Potency does the source give for CCOc1cc(C(=O)Nc2ccc(S(=O)(=O)NC3=NCCCCC3)cc2)cc(Br)c1OC here?
A: inconclusive: 23.1 µM [falling, single point]

Q: With COc1cc2c(cc1OC)C1=NC(=O)CN1C(SCc1ccc(C)cc1)=N2 as the compound, how does the activity change, negative = inhibition read?
A: inconclusive: -0.952%

Q: For COC(=O)CC1Oc2ccc(C)cc2NC1=O (configuration not stated), which activity change, negative = inhibition is on record?
A: inconclusive: 16%

From PubChem BioAssay AID493014 (National Center for Advancing Translational Sciences (NCATS), 2011)
